32 compounds from the supplement of paper PMC12889115 can be followed below.

The assay concerns Salmonella enterica serovar Typhimurium SL1344. The assay can be described thus: bacterial growth OD600 after 18 h with compound and polymyxin B; higher = more bacterial growth (less inhibition). The note with it: 50 µM, Mueller-Hinton broth.

SMILES strings stand for the structures. The list shows a part of the results. Values are raw readings; no control value is given beside them.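 First-pass screen: polymyxin B was added at a level that permeabilizes the Salmonella outer membrane while sparing the inner membrane. DMSO wells, with and without polymyxin B, defined maximum growth. Because plates differed from one another, each plate's data were ranked separately and the compounds with the lowest OD600 were carried forward as hits.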

As for `Cc1nn(C)c(Cl)c1CN1CCC(O)(Cc2cc(-c3ccccc3)no2)CC1`, under “polymyxin B 0.75 µg/mL”, the “bacterial growth OD600” value came out at 0.964.
`Cn1cc(CNc2ccc(C(=O)N3CCC(Cn4cccn4)CC3)cn2)cn1`: the “bacterial growth OD600” value (polymyxin B 1 µg/mL) came to 1.14.
Still for that read-out and setting: next, `O=C(NCCc1cccnc1)C1CCC(=O)N(CCCc2ccccc2)C1` (configuration not stated): 1.33.
For the compound `COc1ccc(CN2CCC(c3nc(-c4ccncc4)ncc3-c3cccc(C)c3)CC2)cc1`, under “polymyxin B 0.75 µg/mL”, the “bacterial growth OD600” value was found to be 0.689.
With `Cc1cnc(C)c(N2CCC(C3CCN(c4ncccn4)CC3)C2)n1` (configuration not stated), the “bacterial growth OD600” value (polymyxin B 0.75 µg/mL) was 0.479.
Same read-out and setting: the result for `COc1ccccc1CNC(=O)c1c(OC)cc(=O)n2c1CCN(Cc1cccc(F)c1)CC2` reads 0.822.
On to `Cc1cccc(CNC(=O)C2CC23CCN(C(=O)CCC2CCCC2)CC3)n1` (configuration not stated), for which the “bacterial growth OD600” value (polymyxin B 0.75 µg/mL) was 0.951.
Still for that read-out and setting: next, `C=CCNC(=O)C1CCCN(C2CCN(c3nc4ccccc4o3)CC2)C1` (configuration not stated): 0.801; `COc1cccc(CCC2CCCN(C(=O)c3ocnc3C)C2)c1` (configuration not stated): 0.714; `Cc1ccc(Oc2ncccc2CNS(=O)(=O)c2ccc(C)s2)cn1`: 0.957.
Still for that read-out and setting: next, `COc1cccc(CC(C2CCN(C(=O)C3CCCCC3)CC2)N(C)C(=O)c2ccn(C)n2)c1` (configuration not stated): 1.02; `Cc1ccccc1N1CCN(c2ncccc2CNCc2nccn2C)CC1`: 0.705.
Regarding `CC(C)CCCC1CN(C(=O)CCN2Cc3ccccc3C2=O)CCO1` (configuration not stated), the “bacterial growth OD600” value (polymyxin B 1 µg/mL) is 0.89.
Same read-out and setting: next, `CC(C)NC1CC(=O)N(Cc2ccccc2C(F)(F)F)C1` (configuration not stated): 0.958.
With `CCN1CC(CNC(=O)c2cc(NC(=O)COC)cc3ncn(CCc4ccccc4)c23)CC1=O` (configuration not stated), the “bacterial growth OD600” value (polymyxin B 0.75 µg/mL) was found to be 0.901.
Still for that read-out and setting: the result for `O=C(c1cccc(F)c1)N1CCOc2ccc(CN3CCC(OCc4ccccc4)CC3)cc2C1` reads 0.7.
On the same count and under the same terms, the result for `COCCC(=O)Nc1cc(C(=O)N(C)CCc2cnn(C)c2)cc2nc(-c3ccccc3)n(C)c12` reads 0.85; that for `Cc1cc(OCc2cc(C(=O)N3CCN(C)C(C)C3)no2)cc(C)c1Cl` (configuration not stated), 0.183.
The same measure, in the same setting: the result for `O=C(NCc1cccnc1N1CCOCC1)c1ccc2c(c1)OCO2` reads 0.818.
Turning to `CN(Cc1cnn(C)c1)CC1(O)CCCN(Cc2ccc(F)c(F)c2)C1=O` (configuration not stated), where the note is “polymyxin B 1 µg/mL”, the “bacterial growth OD600” value turned out to be 0.973.
Consider `CC[C@H](C)[C@H](NC(=O)C1CCCN(c2nc(C)c3ccc(OC)cc3n2)C1)C(=O)OC` (some centres not stated), for which the “bacterial growth OD600” value (polymyxin B 0.75 µg/mL) was 0.034.
On to `O=C(CCC1CCCN(Cc2ccc(CO)o2)C1)Nc1ccc(C(F)(F)F)cc1` (configuration not stated), for which the “bacterial growth OD600” value (polymyxin B 1 µg/mL) is 1.07.
Same read-out and setting: the result for `Cc1ccoc1C(=O)N1CCC2(CCCN(CCCc3ccccc3)C2)C1` (configuration not stated) reads 0.615.
As to `Cc1cc(-c2cc(F)cc3c2OC(CNC(=O)C2CCC2)C3)ccc1F` (configuration not stated), the “bacterial growth OD600” value (polymyxin B 0.75 µg/mL) is 0.031.
`Cc1ccsc1C(=O)N1CCCC(C(=O)c2cccc(Cl)c2)C1` (configuration not stated): the “bacterial growth OD600” value (polymyxin B 1 µg/mL) was found to be 0.698.
As for `CCOC(=O)C1CCCN(C(=O)c2cc(NC(=O)COC)cc3ncn(Cc4ccc(F)cc4)c23)C1` (configuration not stated), for the setting “polymyxin B 0.75 µg/mL”, the “bacterial growth OD600” value turned out to be 0.83.
On the same count and under the same terms, the result for `COc1ccc(CN2CCCC(CO)(Cc3ccc(F)cc3F)C2)cc1O` (configuration not stated) reads 0.665.
Turning to `O=C(NCc1cc(F)ccc1F)c1coc(CN2CCN(c3ncccn3)CC2)n1`, where the note is “polymyxin B 1 µg/mL”, the “bacterial growth OD600” value turned out to be 0.823.
For the compound `CC(C)CCN(C)Cc1cnc(S(=O)(=O)CC(C)C)n1Cc1ccccc1`, where the note is “polymyxin B 1 µg/mL”, the “bacterial growth OD600” value amounted to 0.008.
On to `c1ccc(CNc2nc3nonc3nc2N2CCCC2)cc1`, for which the “bacterial growth OD600” value (polymyxin B 0.75 µg/mL) was 0.881.
Turning to `COc1cccc(CN2C[C@@H]3C[C@@H](c4cccc(Cl)c4)N4CCC[C@@]34C2=O)c1`, the “bacterial growth OD600” value (polymyxin B 0.75 µg/mL) stood at 0.715.
As to `COc1ccc(CCN2CCCC(CN(C)Cc3ccc(NC(C)=O)cc3)C2)cc1` (configuration not stated), the “bacterial growth OD600” value (polymyxin B 1 µg/mL) was determined as 0.826.
